Laboratory results: PubChem BioAssay AID1259308 (NCATS, 2017)
Shown is a random part of about 59,000 reagents tested. About 1,510 of them (2.6%) were called active. 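Calls use total luciferase alone and ignore viability, so some active siRNAs may act by altering cell number.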 Unmarked entries are inactive. Reagents against one gene are numbered here.

- Test: 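Genes whose loss raises luciferase production in HEK293 cells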 (primary screen)
- Cells: human HEK293 embryonic kidney cells stably expressing firefly luciferase (HEK-CMV-Luc2-Hygro)
- Knock-down reagent: single siRNA against human genes, 0.8 pmol siRNA per well
- Duration: 72 h
- Measured: 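Reporter luminescence and viable-cell signal on separate replicate plates, given as percent of non-targeting control and median/MAD z-scores, plus per-cell luciferase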
- Reading the numbers: total luciferase, z-score and total luciferase, % of control: higher = more reporter protein produced; luciferase per cell, z-score: higher = more reporter output per viable cell; viable cells, % of control: higher = more viable cells
- Hit rule: 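An siRNA counts as active if its total luciferase robust z-score exceeds 3; genes with two or more such siRNAs out of three were retested with fresh siRNAs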
- Calls: active = raised luciferase; inactive = no rise

Target gene	siRNA no.	total luciferase, z-score	total luciferase, % of control	luciferase per cell, z-score	viable cells, % of control
HTATIP2	1	-1.27	56.6	-0.742	76.9
HTATIP2	2	2.34	128	1.58	94.7
HTATIP2	3	-0.408	73.8	-1.3	116
ACAA1	1	-0.515	71.6	0.371	72.6
ACAA1	2	-0.164	78.6	-0.715	106
ACAA1	3	0.523	92.3	0.335	94.4
ZDHHC18	1	1.34	108	0.803	98.1
ZDHHC18	2	-1.52	51.7	0.123	55.9
ZDHHC18	3	-0.399	74	-0.168	86.4
ZFAND4	1	0.603	93.9	0.932	82.1
ZFAND4	2	-1.46	52.9	-0.689	70.9
ZFAND4	3	-0.196	78	0.0806	85.3
SUPT6H	1	1.53	112	2.53	64.5
SUPT6H	2	1.89	119	2.77	64.4
SUPT6H	3	1.41	110	3.33	51.1
ZBTB10	1	-0.736	67.3	-1.34	107
ZBTB10	2	0.262	87.1	-0.486	111
ZBTB10	3	0.885	99.5	1.17	81.6
AMZ2	1	-0.411	73.7	-0.384	91.1
AMZ2	2	-0.729	67.4	-0.241	80.2
AMZ2	3	1.41	110	1.48	83.2
UCKL1	1	-0.279	76.3	-0.125	88.1
UCKL1	2	-1.6	50	-1.84	90.6
UCKL1	3	0.131	84.5	0.407	84.8
ATM	1	0.116	84.2	0.48	82.9
ATM	2	1.92	120	1.34	94.3
ATM	3	-0.491	72.1	-1.6	123
RBX1	1	0.0824	83.5	0.785	75.9
RBX1	2	-0.663	68.7	-0.104	78.9
RBX1	3	1.4	110	1.83	75.8
LASP1	1	-0.424	73.4	-1.08	109
LASP1	2	-2.03	41.6	-2.09	80.5
LASP1	3	0.527	92.4	0.721	85.4
ZMIZ2	1	-0.375	74.4	-1.04	109
ZMIZ2	2	-0.416	73.6	-0.956	106
ZMIZ2	3	0.0103	82.1	-0.214	97
NFKBIA	1	-0.668	68.6	0.372	69.5
NFKBIA	2	0.732	96.4	1.89	65.5
NFKBIA	3	2.39	129	0.828	116
ZNF436-AS1	1	-0.821	65.6	-0.0615	74.5
ZNF436-AS1	2	1.83	118	1.55	88
ZNF436-AS1	3	-0.674	68.5	-0.715	92.4

In a second layout: 6 of the entries above
Target gene,siRNA no.,"total luciferase, z-score","total luciferase, % of control","luciferase per cell, z-score","viable cells, % of control"
ZFAND4,3,-0.196,78,0.0806,85.3
SUPT6H,1,1.53,112,2.53,64.5
SUPT6H,2,1.89,119,2.77,64.4
SUPT6H,3,1.41,110,3.33,51.1
ZBTB10,1,-0.736,67.3,-1.34,107
ZBTB10,2,0.262,87.1,-0.486,111

Next entries follow:
Target gene	siRNA no.	total luciferase, z-score	total luciferase, % of control	luciferase per cell, z-score	viable cells, % of control
ASGR1	1	-0.303	75.9	-0.233	90.1
ASGR1	2	-0.0873	80.2	-0.216	94.8
ASGR1	3	-1.33	55.4	-1.77	98.8
SLC25A2	1	-1.84	45.3	0.0419	50.1
SLC25A2	2	0.842	98.6	0.845	88.2
SLC25A2	3	-0.315	75.6	-0.492	96.2
SP2	1	-0.647	69	-0.831	96
SP2	2	-0.0426	81	0.742	74.5
SP2	3	0.623	94.3	0.987	81.2
ZNF493	1	0.2	85.9	0.0532	94.6
ZNF493	2	-0.562	70.7	-0.0652	80.4
ZNF493	3	-1.55	51	-1.47	84
PDCD2L	1	-1.07	60.6	-0.8	83.5
PDCD2L	2	-0.744	67.1	-0.288	80.9
PDCD2L	3	1.64	115	0.812	103
CLDN8	1	-0.517	71.6	-0.176	83.8
CLDN8	2	-0.674	68.5	-0.64	90.6
CLDN8	3	-0.291	76.1	-0.839	106
OR13H1	1	-1.41	53.8	-0.915	76.6
OR13H1	2	0.955	101	0.696	93.8
OR13H1	3	1.77	117	1.21	95.1
CIMAP1A	1	-1.63	49.5	-1.44	80.7
CIMAP1A	2	-0.0717	80.5	-0.535	104
CIMAP1A	3	1.75	117	1.73	82.5
CAPN15	1	0.663	95.1	0.417	95.2
CAPN15	2	-0.387	74.2	-0.312	90
CAPN15	3	0.416	90.2	0.25	94.3
EDN3	1	0.112	84.1	0.636	79.5
EDN3	2	-0.165	78.6	-0.831	109
EDN3	3	0.718	96.2	2.33	58.1
MAP9	1	1.02	102	0.848	91.3
MAP9	2	0.842	98.6	1.09	82.7
MAP9	3	0.0748	83.4	0.221	87.9
